Experimental data from PubChem BioAssay AID743255 (National Center for Advancing Translational Sciences (NCATS), 2014).
Out of some 390,000 compounds screened, about 910 (0.23%) were called active. Inconclusive means that the source gave no clear call. Such entries were picked first, then a sample of the others. Calls come from the whole dose curve; as a rule, active = well fitted inhibition curve with a large enough effect; inconclusive = small, poorly fitted or top-dose-only effect; inactive = no such curve, though single readings can be large or run the other way. Potencies of inconclusive entries are doubtful fits and often do not repeat.

By UniProt entry, the sequences of proteins in these tests, tags left out. Where a name states a change or a piece, a line headed by the entry shows the natural chain unless it says otherwise.
UniProt O94782: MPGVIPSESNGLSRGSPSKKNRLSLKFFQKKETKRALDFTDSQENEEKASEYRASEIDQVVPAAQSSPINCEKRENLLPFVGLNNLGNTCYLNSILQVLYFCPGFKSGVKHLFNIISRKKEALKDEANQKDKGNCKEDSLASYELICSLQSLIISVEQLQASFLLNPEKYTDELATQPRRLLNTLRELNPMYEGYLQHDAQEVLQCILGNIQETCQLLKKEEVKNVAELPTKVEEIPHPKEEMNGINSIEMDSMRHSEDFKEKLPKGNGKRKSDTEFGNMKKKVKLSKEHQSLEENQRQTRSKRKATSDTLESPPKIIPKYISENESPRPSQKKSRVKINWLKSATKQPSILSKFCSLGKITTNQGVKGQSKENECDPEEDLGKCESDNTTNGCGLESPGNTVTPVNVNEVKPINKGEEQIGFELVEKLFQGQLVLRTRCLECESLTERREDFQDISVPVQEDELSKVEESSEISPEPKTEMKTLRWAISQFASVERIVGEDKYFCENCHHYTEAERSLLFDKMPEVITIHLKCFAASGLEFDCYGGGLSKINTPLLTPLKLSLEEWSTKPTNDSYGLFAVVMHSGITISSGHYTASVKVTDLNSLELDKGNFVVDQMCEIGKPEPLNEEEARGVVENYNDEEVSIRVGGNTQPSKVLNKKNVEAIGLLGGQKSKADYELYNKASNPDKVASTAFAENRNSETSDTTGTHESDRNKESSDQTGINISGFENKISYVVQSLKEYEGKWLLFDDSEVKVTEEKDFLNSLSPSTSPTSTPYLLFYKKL

Molecular target: Ubiquitin carboxyl-terminal hydrolase 1 (Homo sapiens) (UniProt O94782)
Test: Inhibitors of USP1/UAF1: Primary Screen; note: nearly all actives have a fitted effect of over 60% in size
Conditions: recombinant USP1/UAF1, Ub-Rhodamine cleavage fluorescence; activity change, negative = inhibition: at 57.1 µM (top of the series)
Summary of the method: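 High-throughput fluorogenic screen: 1nM USP1/UAF1 complex, Ub-Rho substrate 150nM final, 50mM HEPES pH 7.8 with 0.5mM EDTA, 0.1 mg/ml BSA, 1mM TCEP and 0.01% Tween-20.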
% is set by controls: 0 for no effect and ±100 for the full control effect; potency is the fitted concentration of half-maximal effect.

Activity change, negative = inhibition, inconclusive:
CCOC(=O)Cc1cc(OC)c(OC)cc1Cc1cc(OC)c(OC)cc1CC(=O)OCC -28.9% [inhibitor]

Activity change, negative = inhibition, inactive:
CC1Cc2cc(S(=O)(=O)CCC(=O)Nc3ccccc3F)ccc2N1C(=O)C1CC1 (configuration not stated) -3.8%
COc1ccc(C2c3c(noc3C)CC(C)(O)C2C(C)=O)cc1 (configuration not stated) -2.5%
COc1cccc(C2CC(=O)Nc3c2ccc(C)c3C)c1OC (configuration not stated) -19.5%
COCCCn1c(=S)[nH]c2c(sc3ccccc32)c1=O -6.35%
CCc1ccc(-n2c(=O)c3sc4ccccc4c3n(CC(=O)N(CC)Cc3ccccc3)c2=O)cc1 -17.3%
COc1ccc(NC(C)=O)cc1NC(=O)C1(c2cccs2)CCOCC1 -10.4%
Cc1cccc(C(=O)Oc2ccc(/C=N/NC(=O)c3cc(O)cc(O)c3)cc2)c1 -12.8%
O=C(Nc1ccc2c(c1)OCCO2)c1ccccc1F -13%
COc1cccc(C(=O)N2CCCCC2CCN2CCCCC2)c1 (configuration not stated) -19.5%
CN(Cc1ccccc1)CC(O)COc1ccc(CNCCc2cccnc2)cc1 (configuration not stated) -21.7%
O=C1c2ccccc2C(=O)c2c1cccc2N(CCO)CCO -33.3%
O=C(N/N=C/c1c[nH]c2ccccc12)c1sc2ccccc2c1Cl -0.718%
COc1ccc(S(=O)(=O)N=C2C=C(C)C(=O)C(C)=C2)cc1 2.85%
CC1CCN(S(=O)(=O)c2ccc3c(c2)c(=O)c(C(=O)N2CCN(c4cccc(Cl)c4)CC2)cn3C)CC1 -11.6%
Cc1ccc(C2=N/C(=C/N3CCOCC3)C(=O)O2)cc1 -17.5%
Cc1nn(-c2ccccc2)c(OC(=O)c2ccccc2Br)c1S(=O)(=O)c1ccccc1 -29.7%
COc1ccc(Cl)cc1NC(=O)CSc1cn(CC(=O)N2CCCCC2)c2ccccc12 -12.9%

Potency, inconclusive:
N#C/C(=C\c1c[nH]c2ccccc12)C(=O)Nc1ncc(Cc2ccc(Cl)cc2Cl)s1 31.6 µM [inhibitor, partial curve]
Cc1ccc(C(=O)Nc2ccc(Nc3ccccc3)cc2)c(Cl)c1 28.2 µM [inhibitor, partial curve]
Cc1ccc(N(C)S(=O)(=O)c2ccc3[nH]c(=O)ccc3c2)cc1 44.7 µM [inhibitor, single point]
O=C(Cc1cccc(NC(=O)C2CCN(C(=O)C3CC3)CC2)c1)Nc1cccc(C(=O)N2CCCCC2)c1 50.1 µM [inhibitor, partial curve, poor fit]
COc1cccc(-c2cc3nc4c(c(N5CCC6(CC5)OCCO6)n3n2)CCCC4)c1 39.8 µM [inhibitor, partial curve]
O=C(NCc1ccco1)c1ccc2c(c1)N(Cc1ccccc1)C(=O)c1ccccc1S2 3.16 µM [inhibitor, partial curve]
COc1ccccc1CC(=O)Nc1ccc2nc(Nc3cccc(C(F)(F)F)c3)cc(C)c2c1 178 µM [inhibitor, partial curve, poor fit]
COc1ccc(/[N+]([O-])=C/c2ccco2)cc1 35.5 µM [inhibitor, single point]
Cc1cc(-c2nnc(SCC(=O)Nc3nc(-c4ccccc4)cs3)o2)no1 0.631 µM [inhibitor, full curve, poor fit]
CCOc1c(OC)cccc1C1CC(=O)Nc2cc3c(cc21)OCCO3 (configuration not stated) 0.794 µM [inhibitor, full curve, poor fit]
CCc1ccc(NC(=O)NCCc2c(C)nn(C)c2C)cc1 44.7 µM [inhibitor, partial curve, poor fit]
O=C(CCC(=O)N1CC2CCCN2c2ccccc21)NCc1ccc(F)cc1 (configuration not stated) 35.5 µM [inhibitor, single point]
COc1cc(CNC[C@H]2O[C@@H](n3cnc(C(N)=O)n3)[C@H](O)[C@@H]2O)ccc1OCc1cccc(Cl)c1 7.08 µM [inhibitor, full curve, poor fit]
Cn1nnnc1SCC(=O)NCc1cc([N+](=O)[O-])ccc1O 7.94 µM [inhibitor, partial curve, poor fit]
O=C(NCc1cccnc1)c1ccc(Cn2c(=S)[nH]c3ccc(Br)cc3c2=O)cc1 31.6 µM [inhibitor, partial curve]
CC(C)N(C(=O)[C@H]1C[C@H](CC(=O)NCCN2CCOCC2)C(=O)N2CCc3c([nH]c4ccc(Cl)cc34)[C@]12C)C(C)C 50.1 µM [inhibitor, partial curve, poor fit]
CN(CC(=O)NC1CCCCC1)S(=O)(=O)c1ccc2c(c1)c(=O)n(C)c(=O)n2C 3.55 µM [inhibitor, full curve, poor fit]
Cc1ccc(NC(=O)CN2C(=O)c3ccccc3S2(=O)=O)cc1C 8.91 µM [inhibitor, partial curve, poor fit]
Cc1ccc2sc(-c3ccc(N)cc3)nc2c1 35.5 µM [inhibitor, partial curve]
O=C(Cn1nc(C(=O)O)c2ccccc2c1=O)Nc1ccc(Br)cc1 10 µM [inhibitor, partial curve, poor fit]
O=C(Nc1ccc(N2CCCC(O)C2)cc1)c1snc2c(=O)[nH]cnc12 (configuration not stated) 28.2 µM [inhibitor, single point]
COc1cccc(-c2[nH]nc3c2C(c2ccsc2)C(C#N)=C(N)O3)c1 (configuration not stated) 56.2 µM [inhibitor, partial curve, poor fit]
CC(/C=N/NC(=O)c1ccncc1)=C\c1ccccc1 0.398 µM [inhibitor, full curve, poor fit]
CN(C(=O)Cn1cc(C(F)(F)F)cc(Cl)c1=O)C1CCS(=O)(=O)C1 (configuration not stated) 3.16 µM [inhibitor, full curve]
CCOC(=O)c1cc2c(=O)n3ccccc3nc2n(CC2CCCO2)c1=NC(=O)c1ccccc1C (configuration not stated) 31.6 µM [inhibitor, partial curve]
N#Cc1nc(-c2ccco2)oc1N1CCN(C(c2ccccc2)c2ccccc2)CC1 25.1 µM [inhibitor, partial curve]
COc1ccc(C2/C=C\CN(S(=O)(=O)c3ccc(-c4ccccc4)cc3)CC(=O)N2Cc2ccc(F)cc2)cc1 (configuration not stated) 2.51 µM [inhibitor, full curve, poor fit]
Cc1oc(-c2ccccc2F)nc1CS(=O)CC(=O)NC(C)C (configuration not stated) 3.98 µM [inhibitor, full curve, poor fit]
O=C(Nc1cccc(F)c1)C1CCCN(S(=O)(=O)c2cccc3cccnc23)C1 (configuration not stated) 112 µM [inhibitor, partial curve, poor fit]
CC(NC(=O)COC(=O)C12CC3CC(CC(O)(C3)C1)C2)c1ccccc1 (configuration not stated) 8.91 µM [inhibitor, full curve, poor fit]
CCCOC(=O)c1cccc(NC(=O)c2c(-c3ccccc3Cl)noc2C)c1 1.12 µM [inhibitor, full curve, poor fit]
CCc1nnc(NS(=O)(=O)c2ccc(NCc3cc(Cl)ccc3O)cc2)s1 2 µM [inhibitor, partial curve]
COc1ccc(CNS(=O)(=O)c2cc3c(cc2Cl)N(C(C)=O)CCO3)cc1 70.8 µM [inhibitor, partial curve, poor fit]
CN1CCc2c(sc(/N=C/c3ccco3)c2C(N)=O)C1 31.6 µM [inhibitor, partial curve]
COC(=O)C1CCN(C(=O)C2CCC(=O)N(CCCc3ccccc3)C2)CC1 (configuration not stated) 8.91 µM [inhibitor, partial curve]
CCOC(=O)N1CCC(NC(=O)C2CCCN(S(C)(=O)=O)C2)CC1 (configuration not stated) 0.126 µM [inhibitor, full curve, poor fit]
Cc1ccc(Nc2nc(-c3ccncc3)cs2)cc1 44.7 µM [inhibitor, partial curve, poor fit]
CC(C)N(C(=O)[C@H]1C[C@H](CC(=O)NCCc2ccccn2)C(=O)N2CCc3c([nH]c4cc(CCC(=O)N(C)C)ccc34)[C@]12C)C(C)C 50.1 µM [inhibitor, partial curve, poor fit]
CC1CCN(c2ccc3c(c2)S(=O)(=O)c2cccc(C(=O)NCc4ccc(F)cc4)c2C3=O)CC1 31.6 µM [inhibitor, partial curve, poor fit]
O=C1CC(c2c(Cl)cccc2Cl)c2c(ccc3ccccc23)N1 (configuration not stated) 50.1 µM [inhibitor, partial curve, poor fit]
COc1ccc(NC(=O)C2=CC(c3ccco3)=NS(=O)(=O)N2C)cc1OC 22.4 µM [inhibitor, partial curve, poor fit]
CCOc1ccc(CN2C(=O)c3ccccc3Sc3ccc(C(=O)NCc4ccco4)cc32)cc1 44.7 µM [inhibitor, partial curve]
CCN(C(=O)c1ccc(NC(=O)C2CCCCC2C(=O)O)cc1)c1ccccc1 (configuration not stated) 0.141 µM [inhibitor, full curve, poor fit]
C=CCN1c2ccccc2[C@]23C[C@@H](C(=O)OC)N(C(=O)CC(C)C)C2=NC(C(=O)OC)=C(C(=O)OC)[C@H]13 31.6 µM [inhibitor, partial curve]

No new results follow: an excerpt of the list.
Potency, inconclusive:
CCOC(=O)N1CCC(NC(=O)C2CCCN(S(C)(=O)=O)C2)CC1 (configuration not stated) 0.126 µM [inhibitor, full curve, poor fit]
Cc1ccc(Nc2nc(-c3ccncc3)cs2)cc1 44.7 µM [inhibitor, partial curve, poor fit]
